Data taken from the supplement of paper PMC12823440, “Inhibitors supercharge kinase turnover through native proteolytic circuits” (Nature, 2025).
Where a name gives a salt, the structure may show the parent alone. This is one part of the list. The calls rarely recur for the same compound in another form.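 Kinases were expressed as nanoluciferase fusions in K562 cells and luminescence was read every 4 h between 2 and 18 h as percent of control, DMSO set to 100% and a positive control to 0%. A time point counts as decreased when the signal drops significantly (2 sigma). The hit call is the authors' own, does not follow from the count of time points alone, and its rule is not shown.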

Chains of the proteins cited; added tags and fusions are not shown. Lines headed by an entry give the natural chain unless they say otherwise; changes in a name come on top.
UniProt P31152, whole entry: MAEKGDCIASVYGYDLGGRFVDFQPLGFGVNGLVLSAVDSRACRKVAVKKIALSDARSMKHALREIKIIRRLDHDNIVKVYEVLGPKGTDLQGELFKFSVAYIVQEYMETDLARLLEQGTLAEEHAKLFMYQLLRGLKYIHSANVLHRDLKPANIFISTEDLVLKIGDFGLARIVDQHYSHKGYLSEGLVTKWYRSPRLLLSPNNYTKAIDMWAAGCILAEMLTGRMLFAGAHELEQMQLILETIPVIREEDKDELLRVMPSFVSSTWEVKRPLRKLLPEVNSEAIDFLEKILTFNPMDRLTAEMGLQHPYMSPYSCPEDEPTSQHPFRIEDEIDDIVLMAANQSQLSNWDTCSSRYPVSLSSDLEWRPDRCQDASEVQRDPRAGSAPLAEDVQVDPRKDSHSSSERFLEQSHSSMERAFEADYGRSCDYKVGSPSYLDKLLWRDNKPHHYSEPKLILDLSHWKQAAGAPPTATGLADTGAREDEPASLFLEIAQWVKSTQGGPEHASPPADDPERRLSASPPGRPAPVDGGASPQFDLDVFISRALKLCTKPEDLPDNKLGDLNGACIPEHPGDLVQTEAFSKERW
UniProt Q16288, whole entry, looked up: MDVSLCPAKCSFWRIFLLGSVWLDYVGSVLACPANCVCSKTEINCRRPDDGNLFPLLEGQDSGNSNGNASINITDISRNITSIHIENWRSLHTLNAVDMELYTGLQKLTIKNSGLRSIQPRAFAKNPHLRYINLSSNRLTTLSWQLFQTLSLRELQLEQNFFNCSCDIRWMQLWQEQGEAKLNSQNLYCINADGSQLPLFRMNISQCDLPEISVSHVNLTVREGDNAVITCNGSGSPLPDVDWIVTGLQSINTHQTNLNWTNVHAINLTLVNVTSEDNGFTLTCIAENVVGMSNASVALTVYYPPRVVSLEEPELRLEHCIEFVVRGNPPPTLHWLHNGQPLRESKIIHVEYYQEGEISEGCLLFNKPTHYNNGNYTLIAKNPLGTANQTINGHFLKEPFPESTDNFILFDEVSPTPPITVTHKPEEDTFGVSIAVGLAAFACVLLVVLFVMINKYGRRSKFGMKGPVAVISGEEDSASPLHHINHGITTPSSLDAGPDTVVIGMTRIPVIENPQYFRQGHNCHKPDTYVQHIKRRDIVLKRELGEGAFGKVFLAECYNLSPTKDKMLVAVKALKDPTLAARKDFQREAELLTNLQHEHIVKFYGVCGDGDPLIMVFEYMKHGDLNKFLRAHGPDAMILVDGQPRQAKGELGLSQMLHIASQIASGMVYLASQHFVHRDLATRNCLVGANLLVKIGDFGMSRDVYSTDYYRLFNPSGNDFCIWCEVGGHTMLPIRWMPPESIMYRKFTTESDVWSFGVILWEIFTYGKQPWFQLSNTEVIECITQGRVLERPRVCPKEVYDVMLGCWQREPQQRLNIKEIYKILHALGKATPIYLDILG
UniProt O96013: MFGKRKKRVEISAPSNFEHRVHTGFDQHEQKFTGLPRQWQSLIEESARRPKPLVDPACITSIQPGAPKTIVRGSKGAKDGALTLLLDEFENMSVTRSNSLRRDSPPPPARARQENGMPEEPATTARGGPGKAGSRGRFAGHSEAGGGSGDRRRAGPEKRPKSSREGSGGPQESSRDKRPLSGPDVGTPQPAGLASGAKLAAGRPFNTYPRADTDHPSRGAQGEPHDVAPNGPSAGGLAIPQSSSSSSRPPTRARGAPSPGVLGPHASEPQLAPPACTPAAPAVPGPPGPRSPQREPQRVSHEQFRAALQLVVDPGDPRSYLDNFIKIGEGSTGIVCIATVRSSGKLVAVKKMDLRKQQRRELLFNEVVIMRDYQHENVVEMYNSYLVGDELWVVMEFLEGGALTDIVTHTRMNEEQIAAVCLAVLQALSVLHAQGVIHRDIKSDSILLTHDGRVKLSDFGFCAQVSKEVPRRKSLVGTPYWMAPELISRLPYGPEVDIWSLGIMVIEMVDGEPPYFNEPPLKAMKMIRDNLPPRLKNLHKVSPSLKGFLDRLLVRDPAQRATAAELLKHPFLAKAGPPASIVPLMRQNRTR
UniProt P09619, whole entry: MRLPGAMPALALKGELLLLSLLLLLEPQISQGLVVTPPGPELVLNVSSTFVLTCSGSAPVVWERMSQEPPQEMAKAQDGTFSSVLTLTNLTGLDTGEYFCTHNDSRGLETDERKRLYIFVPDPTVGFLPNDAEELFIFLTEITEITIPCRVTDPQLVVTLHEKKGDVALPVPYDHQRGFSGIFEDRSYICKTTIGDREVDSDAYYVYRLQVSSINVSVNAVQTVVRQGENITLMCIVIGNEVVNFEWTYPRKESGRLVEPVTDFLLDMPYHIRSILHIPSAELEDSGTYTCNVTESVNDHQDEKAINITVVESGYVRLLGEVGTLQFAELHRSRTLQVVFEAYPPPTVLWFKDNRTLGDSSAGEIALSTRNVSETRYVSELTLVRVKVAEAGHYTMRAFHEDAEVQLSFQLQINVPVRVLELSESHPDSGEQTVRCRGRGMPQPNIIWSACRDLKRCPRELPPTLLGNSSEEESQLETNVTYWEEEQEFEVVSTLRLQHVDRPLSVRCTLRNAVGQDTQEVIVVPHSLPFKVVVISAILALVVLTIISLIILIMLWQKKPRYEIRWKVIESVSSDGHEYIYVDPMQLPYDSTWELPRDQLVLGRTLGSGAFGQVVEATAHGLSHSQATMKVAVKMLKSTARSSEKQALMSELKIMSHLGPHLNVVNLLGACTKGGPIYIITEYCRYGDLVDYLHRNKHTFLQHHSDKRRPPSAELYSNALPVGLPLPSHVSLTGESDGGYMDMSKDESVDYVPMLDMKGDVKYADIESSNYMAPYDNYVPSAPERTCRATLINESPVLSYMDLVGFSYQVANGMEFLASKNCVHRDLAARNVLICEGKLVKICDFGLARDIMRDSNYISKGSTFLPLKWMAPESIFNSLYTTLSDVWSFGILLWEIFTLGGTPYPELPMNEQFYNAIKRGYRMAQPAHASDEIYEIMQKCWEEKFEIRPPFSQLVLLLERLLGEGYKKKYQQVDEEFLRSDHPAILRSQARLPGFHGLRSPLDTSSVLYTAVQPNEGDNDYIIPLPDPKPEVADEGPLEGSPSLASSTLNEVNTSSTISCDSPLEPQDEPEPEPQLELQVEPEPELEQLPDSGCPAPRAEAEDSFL
UniProt Q15118, whole entry, looked up: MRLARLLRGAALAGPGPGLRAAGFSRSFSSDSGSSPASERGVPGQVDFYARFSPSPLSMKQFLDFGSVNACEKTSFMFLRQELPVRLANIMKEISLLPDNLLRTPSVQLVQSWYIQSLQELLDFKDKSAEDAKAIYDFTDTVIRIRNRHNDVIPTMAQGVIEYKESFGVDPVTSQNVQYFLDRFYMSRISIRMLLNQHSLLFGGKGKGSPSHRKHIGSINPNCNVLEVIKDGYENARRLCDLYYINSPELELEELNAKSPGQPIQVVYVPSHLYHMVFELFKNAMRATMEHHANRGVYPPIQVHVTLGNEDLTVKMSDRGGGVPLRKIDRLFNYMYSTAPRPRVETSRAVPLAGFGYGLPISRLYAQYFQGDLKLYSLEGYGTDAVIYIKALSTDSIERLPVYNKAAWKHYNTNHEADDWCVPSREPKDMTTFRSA
UniProt O15530: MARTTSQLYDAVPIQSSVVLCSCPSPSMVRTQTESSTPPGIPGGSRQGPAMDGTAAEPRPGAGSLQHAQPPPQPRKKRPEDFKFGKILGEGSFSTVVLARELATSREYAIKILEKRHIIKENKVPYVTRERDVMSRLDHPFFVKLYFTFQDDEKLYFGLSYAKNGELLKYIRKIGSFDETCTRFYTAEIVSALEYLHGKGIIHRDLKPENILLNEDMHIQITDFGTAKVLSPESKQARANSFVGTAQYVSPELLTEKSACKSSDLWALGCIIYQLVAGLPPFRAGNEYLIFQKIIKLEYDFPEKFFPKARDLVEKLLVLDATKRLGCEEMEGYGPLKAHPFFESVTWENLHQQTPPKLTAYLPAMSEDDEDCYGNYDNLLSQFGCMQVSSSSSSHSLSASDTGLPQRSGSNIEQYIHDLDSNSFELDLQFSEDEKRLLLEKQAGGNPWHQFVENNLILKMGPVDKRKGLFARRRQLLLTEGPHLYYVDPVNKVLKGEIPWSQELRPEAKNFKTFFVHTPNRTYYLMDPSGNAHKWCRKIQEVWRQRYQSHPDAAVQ
UniProt P53350, whole entry: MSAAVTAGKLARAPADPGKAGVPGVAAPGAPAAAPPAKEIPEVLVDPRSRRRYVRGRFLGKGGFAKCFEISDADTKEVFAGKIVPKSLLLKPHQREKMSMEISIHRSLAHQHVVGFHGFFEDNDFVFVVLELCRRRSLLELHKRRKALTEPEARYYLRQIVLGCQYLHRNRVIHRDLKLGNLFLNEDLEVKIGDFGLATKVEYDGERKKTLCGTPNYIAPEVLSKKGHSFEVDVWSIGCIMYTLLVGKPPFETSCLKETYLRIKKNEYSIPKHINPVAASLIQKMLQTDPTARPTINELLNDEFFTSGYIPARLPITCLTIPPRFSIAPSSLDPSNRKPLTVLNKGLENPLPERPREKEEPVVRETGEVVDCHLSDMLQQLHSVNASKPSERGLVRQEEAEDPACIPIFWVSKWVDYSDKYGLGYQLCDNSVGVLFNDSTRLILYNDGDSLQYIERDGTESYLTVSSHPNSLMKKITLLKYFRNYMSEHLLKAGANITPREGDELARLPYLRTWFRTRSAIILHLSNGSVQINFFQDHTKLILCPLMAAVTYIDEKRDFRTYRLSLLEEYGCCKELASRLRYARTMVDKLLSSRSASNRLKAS
UniProt Q13131: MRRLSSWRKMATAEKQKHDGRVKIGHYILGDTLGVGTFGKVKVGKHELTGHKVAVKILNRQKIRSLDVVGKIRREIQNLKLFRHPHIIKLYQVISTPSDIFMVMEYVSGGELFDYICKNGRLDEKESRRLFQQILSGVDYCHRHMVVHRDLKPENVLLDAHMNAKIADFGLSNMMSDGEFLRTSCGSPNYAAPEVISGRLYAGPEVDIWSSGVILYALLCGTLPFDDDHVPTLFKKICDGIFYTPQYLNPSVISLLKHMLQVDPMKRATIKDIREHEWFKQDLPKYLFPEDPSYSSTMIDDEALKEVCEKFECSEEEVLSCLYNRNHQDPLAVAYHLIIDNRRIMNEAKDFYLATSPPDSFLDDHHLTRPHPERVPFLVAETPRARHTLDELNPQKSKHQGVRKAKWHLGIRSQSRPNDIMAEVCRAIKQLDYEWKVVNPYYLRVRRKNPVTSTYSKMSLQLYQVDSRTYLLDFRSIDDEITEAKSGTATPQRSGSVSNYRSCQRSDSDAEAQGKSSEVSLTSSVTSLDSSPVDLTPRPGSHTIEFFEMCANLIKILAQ
UniProt Q14289, whole entry, looked up: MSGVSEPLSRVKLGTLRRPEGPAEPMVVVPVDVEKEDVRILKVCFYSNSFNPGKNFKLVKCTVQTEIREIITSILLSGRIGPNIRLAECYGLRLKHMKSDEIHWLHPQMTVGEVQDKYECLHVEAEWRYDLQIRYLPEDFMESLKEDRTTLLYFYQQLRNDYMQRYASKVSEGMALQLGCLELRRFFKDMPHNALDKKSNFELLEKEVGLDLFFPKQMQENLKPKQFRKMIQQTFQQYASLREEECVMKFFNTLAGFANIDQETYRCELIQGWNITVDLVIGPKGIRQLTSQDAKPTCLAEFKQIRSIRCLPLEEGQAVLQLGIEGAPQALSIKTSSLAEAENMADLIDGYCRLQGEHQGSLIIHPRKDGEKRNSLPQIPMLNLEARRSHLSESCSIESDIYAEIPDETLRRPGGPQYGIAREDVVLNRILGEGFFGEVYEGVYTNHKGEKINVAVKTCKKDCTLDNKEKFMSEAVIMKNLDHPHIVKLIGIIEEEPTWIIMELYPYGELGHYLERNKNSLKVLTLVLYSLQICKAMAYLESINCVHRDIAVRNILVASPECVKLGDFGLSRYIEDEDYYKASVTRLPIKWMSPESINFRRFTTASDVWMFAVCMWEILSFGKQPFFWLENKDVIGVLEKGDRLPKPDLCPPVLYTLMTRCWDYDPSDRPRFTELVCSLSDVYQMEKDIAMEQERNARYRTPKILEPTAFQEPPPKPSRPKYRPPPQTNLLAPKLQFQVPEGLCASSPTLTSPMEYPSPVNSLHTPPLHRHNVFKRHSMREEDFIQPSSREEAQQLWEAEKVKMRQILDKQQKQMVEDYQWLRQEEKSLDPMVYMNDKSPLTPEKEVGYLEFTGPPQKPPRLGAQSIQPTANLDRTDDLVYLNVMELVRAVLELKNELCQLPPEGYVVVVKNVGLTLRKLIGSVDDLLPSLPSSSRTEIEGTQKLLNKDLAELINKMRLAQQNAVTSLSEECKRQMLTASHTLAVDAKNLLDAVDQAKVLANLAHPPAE

How the values were obtained:
Experiment in all cases: kinase-Nluc reporter destabilization hit call (1 = scored as downregulated) (binary); higher = compound decreases kinase abundance
Conditions in all cases: K562; 2-18 h
MAPK1 = MAPK1 (UniProt P28482)
MAPK4 = MAPK4 (UniProt P31152)
MAPKAPK2 = MAPKAPK2 (UniProt P49137)
MKNK1 = MKNK1 (UniProt Q9BUB5)
NTRK2 = NTRK2 (UniProt Q16620)
NTRK3 = NTRK3 (UniProt Q16288)
PAK4 = PAK4 (UniProt O96013)
PBK = PBK (UniProt Q96KB5)
PDGFRB = PDGFRB (UniProt P09619)
PDK1 = PDK1 (UniProt Q15118)
PDPK1 = PDPK1 (UniProt O15530)
PIK4CA = PIK4CA (UniProt P42356)
PIK4CB = PIK4CB (UniProt Q9UBF8)
PLK1 = PLK1 (UniProt P53350)
PRKAA1 = PRKAA1 (UniProt Q13131)
PRKCA = PRKCA (UniProt P17252)
PTK2 = PTK2 (UniProt Q05397)
RAF1 = RAF1 (UniProt P04049)
[1] = target: RAF1_S257L (clone: RAF1_mut) (UniProt P04049)
PTK2B = PTK2B (UniProt Q14289)

Row | Compound | kinase-Nluc reporter destabilization hit call (MAPK1) | kinase-Nluc reporter destabilization hit call (MAPK4) | kinase-Nluc reporter destabilization hit call (MAPKAPK2) | kinase-Nluc reporter destabilization hit call (MKNK1) | kinase-Nluc reporter destabilization hit call (NTRK2) | kinase-Nluc reporter destabilization hit call (NTRK3) | kinase-Nluc reporter destabilization hit call (PAK4) | kinase-Nluc reporter destabilization hit call (PBK) | kinase-Nluc reporter destabilization hit call (PDGFRB) | kinase-Nluc reporter destabilization hit call (PDK1) | kinase-Nluc reporter destabilization hit call (PDPK1) | kinase-Nluc reporter destabilization hit call (PIK4CA) | kinase-Nluc reporter destabilization hit call (PIK4CB) | kinase-Nluc reporter destabilization hit call (PLK1) | kinase-Nluc reporter destabilization hit call (PRKAA1) | kinase-Nluc reporter destabilization hit call (PRKCA) | kinase-Nluc reporter destabilization hit call (PTK2) | kinase-Nluc reporter destabilization hit call (RAF1) | kinase-Nluc reporter destabilization hit call [1] | kinase-Nluc reporter destabilization hit call (PTK2B)
1 | CCc1nc(-c2cccc(C)c2)c(-c2ccnc(NC(=O)c3ccccc3)c2)s1 (10 µM) | inactive: 0 | inactive: 0 | inactive: 0 | inactive: 0 | inactive: 0 | inactive: 0 | inactive: 0 | inactive: 0 | inactive: 0 | inactive: 0 | inactive: 0 | inactive: 0 | inactive: 0 | inactive: 0 | inactive: 0 | inactive: 0 | inactive: 0 | inactive: 0 | inactive: 0 | –
2 | CN(c1ncccc1CNc1nc(Nc2ccc3c(c2)CC(=O)N3)ncc1C(F)(F)F)S(C)(=O)=O (2.5 µM) | inactive: 0 | inactive: 0 | inactive: 0 | inactive: 0 | inactive: 0 | inactive: 0 | inactive: 0 | inactive: 0 | – | inactive: 0 | inactive: 0 | inactive: 0 | inactive: 0 | inactive: 0 | inactive: 0 | inactive: 0 | – | inactive: 0 | inactive: 0 | –
3 | COc1ccc(COc2ccc(Cc3cnc(N)nc3N)cc2OC)cc1 (10 µM) | inactive: 0 | inactive: 0 | inactive: 0 | inactive: 0 | inactive: 0 | – | inactive: 0 | inactive: 0 | inactive: 0 | inactive: 0 | inactive: 0 | inactive: 0 | inactive: 0 | inactive: 0 | inactive: 0 | inactive: 0 | inactive: 0 | inactive: 0 | inactive: 0 | inactive: 0
4 | CNC(=O)c1cc(Oc2ccc(NC(=O)Nc3cc(C(C)(C)C)nn3-c3ccc4ncccc4c3)c(F)c2)ccn1 [Rebastinib] (2.5 µM) | inactive: 0 | inactive: 0 | inactive: 0 | inactive: 0 | – | inactive: 0 | inactive: 0 | inactive: 0 | inactive: 0 | inactive: 0 | inactive: 0 | inactive: 0 | inactive: 0 | inactive: 0 | inactive: 0 | inactive: 0 | inactive: 0 | inactive: 0 | inactive: 0 | inactive: 0
5 | c1cc(OCCN2CCCCC2)cc(-c2n[nH]c3ccc(-c4nnc[nH]4)cc23)c1 [CC-401 (hydrochloride)] (10 µM) | inactive: 0 | inactive: 0 | inactive: 0 | inactive: 0 | – | inactive: 0 | inactive: 0 | inactive: 0 | inactive: 0 | inactive: 0 | inactive: 0 | inactive: 0 | inactive: 0 | inactive: 0 | inactive: 0 | inactive: 0 | inactive: 0 | inactive: 0 | inactive: 0 | inactive: 0
6 | COC(=O)c1ccc2c(C(=Nc3ccc(N(C)C(=O)CN4CCN(C)CC4)cc3)c3ccccc3)c(O)[nH]c2c1 [Nintedanib] (2.5 µM) | inactive: 0 | inactive: 0 | inactive: 0 | inactive: 0 | inactive: 0 | inactive: 0 | inactive: 0 | inactive: 0 | inactive: 0 | inactive: 0 | inactive: 0 | inactive: 0 | inactive: 0 | inactive: 0 | inactive: 0 | inactive: 0 | inactive: 0 | inactive: 0 | inactive: 0 | inactive: 0
7 | O=c1oc2ccccc2c(O)c1Cc1c(O)c2ccccc2oc1=O [Dicoumarol] (10 µM) | – | inactive: 0 | inactive: 0 | inactive: 0 | inactive: 0 | inactive: 0 | inactive: 0 | inactive: 0 | inactive: 0 | inactive: 0 | inactive: 0 | inactive: 0 | inactive: 0 | inactive: 0 | inactive: 0 | inactive: 0 | inactive: 0 | inactive: 0 | inactive: 0 | inactive: 0
8 | CC(C)(C)c1cc(NC(=O)Nc2ccc(-c3cn4c(n3)sc3cc(OCCN5CCOCC5)ccc34)cc2)no1 [Quizartinib] (10 µM) | inactive: 0 | inactive: 0 | inactive: 0 | inactive: 0 | – | – | inactive: 0 | inactive: 0 | active: 1 | inactive: 0 | inactive: 0 | inactive: 0 | inactive: 0 | inactive: 0 | inactive: 0 | inactive: 0 | inactive: 0 | inactive: 0 | inactive: 0 | inactive: 0
9 | Cc1ccc2c(Nc3cccc(OC(F)(F)F)c3)nccc2c1Nc1ncccc1-c1ncnc2[nH]cnc12 (10 µM) | inactive: 0 | inactive: 0 | inactive: 0 | inactive: 0 | inactive: 0 | inactive: 0 | inactive: 0 | inactive: 0 | – | inactive: 0 | inactive: 0 | inactive: 0 | inactive: 0 | inactive: 0 | inactive: 0 | inactive: 0 | inactive: 0 | – | inactive: 0 | inactive: 0
10 | COc1cc(OC)cc(-c2cc3cnc(N)nc3nc2NC(=O)NC(C)(C)C)c1 (10 µM) | inactive: 0 | inactive: 0 | inactive: 0 | inactive: 0 | inactive: 0 | inactive: 0 | inactive: 0 | inactive: 0 | – | inactive: 0 | inactive: 0 | inactive: 0 | inactive: 0 | inactive: 0 | inactive: 0 | inactive: 0 | inactive: 0 | inactive: 0 | inactive: 0 | inactive: 0
11 | O=C1NCCc2[nH]c(-c3ccnc(-c4cnc5ccccc5c4)c3)cc21 (10 µM) | inactive: 0 | inactive: 0 | – | inactive: 0 | inactive: 0 | inactive: 0 | inactive: 0 | inactive: 0 | inactive: 0 | inactive: 0 | inactive: 0 | inactive: 0 | inactive: 0 | inactive: 0 | inactive: 0 | inactive: 0 | inactive: 0 | inactive: 0 | inactive: 0 | inactive: 0
12 | Cc1cc(N2CCOCC2)cc2[nH]c(-c3c(NC[C@@H](O)c4cccc(Cl)c4)cc[nH]c3=O)nc12 (10 µM) | inactive: 0 | inactive: 0 | inactive: 0 | inactive: 0 | inactive: 0 | inactive: 0 | inactive: 0 | inactive: 0 | inactive: 0 | inactive: 0 | inactive: 0 | inactive: 0 | inactive: 0 | inactive: 0 | inactive: 0 | inactive: 0 | – | inactive: 0 | inactive: 0 | inactive: 0
13 | CN1CCN(c2ccc(C(=O)Nc3n[nH]c4ccc(Cc5cc(F)cc(F)c5)cc34)c(NC3CCOCC3)c2)CC1 [Entrectinib] (2.5 µM) | inactive: 0 | inactive: 0 | inactive: 0 | inactive: 0 | inactive: 0 | inactive: 0 | inactive: 0 | inactive: 0 | – | inactive: 0 | inactive: 0 | inactive: 0 | inactive: 0 | inactive: 0 | inactive: 0 | inactive: 0 | inactive: 0 | inactive: 0 | inactive: 0 | inactive: 0
14 | COc1cc2c(Nc3ccc(Br)cc3F)ncnc2cc1OCCn1ccnn1 (10 µM) | inactive: 0 | inactive: 0 | inactive: 0 | inactive: 0 | inactive: 0 | inactive: 0 | inactive: 0 | inactive: 0 | – | inactive: 0 | inactive: 0 | inactive: 0 | inactive: 0 | inactive: 0 | inactive: 0 | inactive: 0 | inactive: 0 | inactive: 0 | inactive: 0 | inactive: 0
15 | COCc1c(-c2ccc(NC(=O)Nc3cc(C(F)(F)F)ccc3F)c(F)c2)c2c(N)ncnn2c1CN1CCOCC1 (2.5 µM) | inactive: 0 | inactive: 0 | inactive: 0 | inactive: 0 | inactive: 0 | inactive: 0 | inactive: 0 | inactive: 0 | inactive: 0 | inactive: 0 | inactive: 0 | inactive: 0 | inactive: 0 | inactive: 0 | inactive: 0 | inactive: 0 | inactive: 0 | inactive: 0 | inactive: 0 | inactive: 0
16 | N#C/C(=C\c1ccc(O)c(O)c1)C(=O)NCc1ccccc1 (10 µM) | inactive: 0 | inactive: 0 | inactive: 0 | inactive: 0 | inactive: 0 | inactive: 0 | inactive: 0 | inactive: 0 | inactive: 0 | inactive: 0 | inactive: 0 | inactive: 0 | inactive: 0 | inactive: 0 | inactive: 0 | inactive: 0 | inactive: 0 | inactive: 0 | inactive: 0 | inactive: 0
17 | CC(=O)NCC(=O)N1[C@@H]2CC[C@H]1c1ccc(Nc3ncc(C(F)(F)F)c(NC4CCC4)n3)cc12 (2.5 µM) | inactive: 0 | inactive: 0 | inactive: 0 | inactive: 0 | inactive: 0 | inactive: 0 | inactive: 0 | inactive: 0 | – | inactive: 0 | inactive: 0 | inactive: 0 | inactive: 0 | inactive: 0 | inactive: 0 | inactive: 0 | inactive: 0 | inactive: 0 | inactive: 0 | inactive: 0
18 | Cc1ccc(S(=O)(=O)Nc2nc3ccccc3nc2Nc2ccc3nsnc3c2)cc1 [Pilaralisib analogue] (10 µM) | inactive: 0 | inactive: 0 | inactive: 0 | – | inactive: 0 | inactive: 0 | inactive: 0 | inactive: 0 | inactive: 0 | inactive: 0 | – | inactive: 0 | inactive: 0 | inactive: 0 | – | inactive: 0 | active: 1 | inactive: 0 | inactive: 0 | inactive: 0
19 | O=c1oc2c(O)c(O)cc3c(=O)oc4c(O)c(O)cc1c4c23 [Ellagic acid] (10 µM) | inactive: 0 | inactive: 0 | inactive: 0 | inactive: 0 | inactive: 0 | inactive: 0 | inactive: 0 | inactive: 0 | – | inactive: 0 | inactive: 0 | inactive: 0 | inactive: 0 | inactive: 0 | inactive: 0 | inactive: 0 | inactive: 0 | inactive: 0 | inactive: 0 | inactive: 0
20 | Cn1c(=O)c(Oc2ccc(F)cc2F)cc2cnc(NC3CCOCC3)nc21 [R1487 (Hydrochloride)] (10 µM) | inactive: 0 | inactive: 0 | inactive: 0 | inactive: 0 | inactive: 0 | inactive: 0 | inactive: 0 | inactive: 0 | inactive: 0 | inactive: 0 | inactive: 0 | inactive: 0 | inactive: 0 | inactive: 0 | inactive: 0 | inactive: 0 | inactive: 0 | inactive: 0 | inactive: 0 | –

Another view of part of the listing above.
Row	Compound	kinase-Nluc reporter destabilization hit call (MAPK1)	kinase-Nluc reporter destabilization hit call (MAPK4)	kinase-Nluc reporter destabilization hit call (MAPKAPK2)	kinase-Nluc reporter destabilization hit call (MKNK1)	kinase-Nluc reporter destabilization hit call (NTRK2)	kinase-Nluc reporter destabilization hit call (NTRK3)	kinase-Nluc reporter destabilization hit call (PAK4)	kinase-Nluc reporter destabilization hit call (PBK)	kinase-Nluc reporter destabilization hit call (PDGFRB)	kinase-Nluc reporter destabilization hit call (PDK1)	kinase-Nluc reporter destabilization hit call (PDPK1)	kinase-Nluc reporter destabilization hit call (PIK4CA)	kinase-Nluc reporter destabilization hit call (PIK4CB)	kinase-Nluc reporter destabilization hit call (PLK1)	kinase-Nluc reporter destabilization hit call (PRKAA1)	kinase-Nluc reporter destabilization hit call (PRKCA)	kinase-Nluc reporter destabilization hit call (PTK2)	kinase-Nluc reporter destabilization hit call (RAF1)	kinase-Nluc reporter destabilization hit call [1]	kinase-Nluc reporter destabilization hit call (PTK2B)
1	CCc1nc(-c2cccc(C)c2)c(-c2ccnc(NC(=O)c3ccccc3)c2)s1 (10 µM)	inactive: 0	inactive: 0	inactive: 0	inactive: 0	inactive: 0	inactive: 0	inactive: 0	inactive: 0	inactive: 0	inactive: 0	inactive: 0	inactive: 0	inactive: 0	inactive: 0	inactive: 0	inactive: 0	inactive: 0	inactive: 0	inactive: 0	–
13	CN1CCN(c2ccc(C(=O)Nc3n[nH]c4ccc(Cc5cc(F)cc(F)c5)cc34)c(NC3CCOCC3)c2)CC1 [Entrectinib] (2.5 µM)	inactive: 0	inactive: 0	inactive: 0	inactive: 0	inactive: 0	inactive: 0	inactive: 0	inactive: 0	–	inactive: 0	inactive: 0	inactive: 0	inactive: 0	inactive: 0	inactive: 0	inactive: 0	inactive: 0	inactive: 0	inactive: 0	inactive: 0
14	COc1cc2c(Nc3ccc(Br)cc3F)ncnc2cc1OCCn1ccnn1 (10 µM)	inactive: 0	inactive: 0	inactive: 0	inactive: 0	inactive: 0	inactive: 0	inactive: 0	inactive: 0	–	inactive: 0	inactive: 0	inactive: 0	inactive: 0	inactive: 0	inactive: 0	inactive: 0	inactive: 0	inactive: 0	inactive: 0	inactive: 0
